Experimental findings from patent US6723527B2, “Methods for determining toxicity reversing agents” (Board of Regents, The University of Texas System, priority 2001, dated 2004) are described below.

The subject of the series is human peripheral blood lymphocytes. Briefly: lymphocyte growth inhibition assay ([3H]-thymidine incorporation) in chemically defined medium. Format: cell-based. The following applies: at 0.1 μg/ml. The protocol: The medium is also described in the specification above. Various concentrations of amino acids can be used in the medium to determine the effect on growth or growth inhibition.
Human peripheral blood was collected from a group of patients in the clinic. […] Experiments were conducted in 96 well microtite plates. Triplicate samples were run in all experiments. […] For reversal of toxicity CoQ10 was added at a concentration of 0.5 μg/ml, and the patient's own plasma at a concentration of 0.1%. All chemicals were obtained from Sigma Chemical Corporation. […] Cells were then pulsed with 10 μl [^3H]-thymidine (0.29×10^-6M final concentration; specific activity […]). Twenty-four hours later, cells were harvested using an Inotech Cell Harvester. Radioactive incorporation was measured using a Packard Matrix 96 Beta Counter.

Take `CC(C)c1c(C(=O)Nc2ccccc2)c(-c2ccccc2)c(-c2ccc(F)cc2)n1CC[C@@H](O)C[C@@H](O)CC(=O)O` [Lipitor, Atorvastatin]: the “toxicity / inhibition of growth or other response of lymphocytes” value is recorded as “extremely toxic to most subjects”.
